Assay results from US20220241330A1.
No constants are given. Whether binding was seen depends on the method and setting. Some entries that bind do so weakly or less than the wild type. Values belong to the binder of their own block, whether it stands above or below them.

Tests used:
[1] = target: hybrid CD4: mouse CD4 backbone with human CD4 domain 2 (mouse; human) (UniProt P06332); assay: flow cytometry on HEK-293 cells expressing mouse CD4 with a human CD4 domain
CD4-Fc protein (human) [2] = target: CD4-Fc protein (human) (UniProt P01730); assay: epitope binning, Tregalizumab fixed on the sensor, 100nM hCD4-Fc in solution (text: Biacore; axis: Response(nm)); blank sensor flat
[3] = target: hybrid CD4: mouse CD4 backbone with human CD4 domain 2 (mouse; human) (UniProt P06332); assay: flow cytometry on HEK293-6E cells expressing mouse CD4 with human domain 2, isotype control as reference
CD4-Fc protein (human) [4] = target: CD4-Fc protein (human) (UniProt P01730); assay: Biacore epitope binning with CD4-Fc; competitors Ibalizumab and Tregalizumab
CD4-Fc protein (human) [5] = target: CD4-Fc protein (human) (UniProt P01730); assay: epitope binning, Zanolimumab fixed on the sensor, 100nM hCD4-Fc in solution (text: Biacore; axis: Response(nm)); blank sensor flat

binding [1]: binds | binding (CD4-Fc protein (human) [2]): binds | binding [3]: binds
B1: Tregalizumab (antibody, V domains shown)
VH: EEQLVESGGGLVKPGGSLRLSCAASGFSFSDCRMYWLRQAPGKGLEWIGVISVKSENYGANYAESVRGRFTISRDDSKNTVYLQMNSLKTEDTAVYYCSASYYRYDVGAWFAYWGQGTLVTVSS
VL: DIVMTQSPDSLAVSLGERATINCRASKSVSTSGYSYIYWYQQKPGQPPKLLIYLASILESGVPDRFSGSGSGTDFTLTISSLQAEDVAVYYCQHSRELPWTFGQGTKVEIKR

binding (CD4-Fc protein (human) [4]): binds | binding (CD4-Fc protein (human) [5]): binds
B2: Zanolimumab (antibody, V domains shown)
VH: QVQLQQWGAGLLKPSETLSLTCAVYGGSFSGYYWSWIRQPPGKGLEWIGEINHSGSTNYNPSLKSRVTISVDTSKNQFSLKLSSVTAADTAVYYCARVINWFDPWGQGTLVT
VL: DIQMTQSPSSVSASVGDRVTITCRASQDISSWLAWYQHKPGKAPKLLIYAASSLQSGVPSRFSGSGSGTDFTLTISSLQPEDFATYYCQQANSFPYTFGQGTKLEIK
